Measured values taken from PubChem BioAssay AID2685 (National Center for Advancing Translational Sciences (NCATS), 2010).
The other results are listed elsewhere or left out. These are further read-outs of the screen, such as a control signal, another cell line or another target. No call is given for them. Most of these compounds were active or inconclusive in the main read-out, so they are no random draw. Potencies come from curve fits of mixed quality, noted in brackets.

Experiment: qHTS Assay for Lipid Storage Modulators in Drosophila S3 Cells;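 as to cell number change: cells counted by Cell Tracker Red CMTPX staining in the red channel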
Settings: BODIPY lipid droplet fluorescence, 18-24 h; for cell number change: measured here: cell count max response, cells fed with added oleic acid
Summary of the method: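 Laser-scanning cytometry quantifies lipid droplet accumulation (500–530 nm total intensity; droplet/cell object ratio) in oleic acid-fed (400 uM added) Drosophila S3 cells treated with a concentration series. 20 uM Triacsin C defined 100% inhibition.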

[1] = measured here: cell number channel AC50, cells fed with added oleic acid
[2] = measured here: lipid fluorescence (Fed channel) AC50, cells fed with added oleic acid

Row | SMILES | cell number change [%] | AC50 [1] | AC50 [2]
1 | COc1cc(C(=O)N2CCCN(C)CC2)cc(OC)c1C | -7.75 | 0.82 µM [falling, full curve, poor fit] | 0.92 µM [falling, full curve, poor fit]
2 | CCC(=O)Nc1ccc(NC(=S)NC(=O)/C=C/c2ccco2)cc1 | -30.3 | 2.59 µM [falling, partial curve] | 2.31 µM [falling, full curve]
3 | COc1ccc(C2/C=C\CN(C(=O)CC(C)C)CC(=O)N2Cc2ccc(F)cc2)cc1 (stereo unspecified) | 10.6 | – | 2.59 µM [rising, single point]
4 | CCCC1Cc2c(sc3ncnc(N)c23)CO1 (stereo unspecified) | -26.1 | – | 1.3 µM [falling, partial curve]
5 | Cc1ccc(C(=O)N2CCN(c3cccc(C)c3C)CC2)cc1S(=O)(=O)N1CCOCC1 | – | – | 0.00461 µM [falling, full curve, poor fit]
6 | Clc1ccc(-c2noc(CCCc3ccccc3)n2)cc1 | – | 6.51 µM [falling, single point] | –
7 | CN(C)c1cc(C(F)(F)F)nc(-c2ccccn2)n1 | 60.2 | 29.1 µM [rising, single point] | 29.1 µM [rising, single point]
8 | COc1ccccc1-c1nc2s/c(=C\c3cccs3)c(=O)n2n1 | -34.4 | 25.9 µM [falling, partial curve, poor fit] | –
9 | CCOCCCNC(=O)/C(C#N)=C/c1ccc(Cl)c([N+](=O)[O-])c1 | -42.6 | – | 0.184 µM [falling, full curve]
10 | COc1cc(OC)cc(-c2cc3ncccc3cn2)c1 | 14.9 | – | 0.116 µM [rising, full curve]
11 | CN(C)S(=O)(=O)Oc1ccsc1C(=O)Nc1ccc(Br)cc1 | 5.69 | – | 20.6 µM [falling, single point]
12 | CCCCCCNC(=O)CC(NS(=O)(=O)c1ccc(OC)cc1)C(C)C (stereo unspecified) | 8.52 | – | 11.6 µM [rising, partial curve]
13 | COc1cc(/C=C2\CCc3ccccc3C2=O)cc(OC)c1OC | 10.1 | 6.51 µM [rising, single point] | 7.31 µM [rising, partial curve, poor fit]
14 | O=C(CC12CC3CC(CC(C3)C1)C2)NCc1ccccc1 | – | – | 0.58 µM [falling, single point]
15 | O=C(Nc1nc(-c2ccccc2)cs1)c1cccnc1 | 20.1 | – | –
16 | COc1ccc(OCC(=O)NNC(=S)NC(=O)C2CC2)cc1 | 14.4 | – | 29.1 µM [rising, single point]
17 | COc1ccc(Cl)cc1NC(=O)CN(C)C(C)C(=O)NC(=O)NC1CCCCC1 (stereo unspecified) | 150 | 18.4 µM [rising, single point] | –
18 | COc1cccc(NC(=O)CNC(=O)[C@@H]2Cc3ccccc3CN2C(=O)OC(C)(C)C)c1 | -11.6 | – | –
19 | COc1ccc(NC(=O)CN(c2ccc(OC)c(Cl)c2)S(=O)(=O)c2ccccc2)cc1 | -25.9 | – | 29.1 µM [falling, single point]
20 | COc1ccc(N=C2SC(C(=O)Nc3ccc(OC)cc3)CC(=O)N2CCN2CCOCC2)cc1 (stereo unspecified) | 16.2 | – | 16.4 µM [rising, single point]

Row | SMILES | cell number change [%] | AC50 [1] | AC50 [2]
21 | Cc1cc(=O)n2c(c1C#N)SC1CCCCC12O (stereo unspecified) | 2.2 | – | –
22 | Cc1cc2cc(CN(CC3CCCO3)C(=S)Nc3ccccc3)c(=O)[nH]c2cc1C (stereo unspecified) | -1.59 | 1.3 µM [falling, full curve, poor fit] | 1.3 µM [rising, partial curve]
23 | O=c1c(C(c2ccc(Cl)cc2)c2c(O)nc3n(c2=O)CCCS3)c(O)nc2n1CCCS2 | -10.8 | – | 4.61 µM [rising, single point]
24 | COc1ccc(/C=C/C(=O)N2CCN(c3ccccn3)CC2)cc1 | 24.1 | 1.03 µM [rising, full curve, poor fit] | –
25 | C=CCNC(=O)C12CCC(C)(C(=O)[C@H]1Br)C2(C)C (stereo partly specified) | -11.4 | – | 0.116 µM [falling, full curve, poor fit]
26 | C=CCN(Cc1cc(OC)ccc1OC)S(=O)(=O)N(C)C | -30.8 | 6.51 µM [falling, single point] | 6.51 µM [falling, single point]
27 | CC(C)(C)NC(=O)CN(Cc1cccs1)C(=O)c1csnn1 | 6.01 | 0.651 µM [falling, full curve, poor fit] | –
28 | Cc1cc(C)nc(NCCC(=O)O)n1 | -26.7 | 0.82 µM [falling, full curve, poor fit] | –
29 | COc1ccc(CCNS(=O)(=O)c2ccc3c(c2)NC(=O)CO3)cc1OC | -10.5 | – | –
30 | CC(C)(C)c1ccc(C(=O)NCCCNC(=O)c2ccccn2)cc1 | 8.57 | 0.0651 µM [rising, full curve, poor fit] | –
31 | COCCNC(=O)c1cccc(OC2CCN(Cc3ccc(F)c(OC)c3)CC2)c1 | 9.84 | – | 1.16 µM [rising, full curve]
32 | CC(=O)N(CN1C(=O)C2CC=CCC2C1=O)c1cccc(Cl)c1 (stereo unspecified) | 3.55 | – | 5.8 µM [rising, full curve]
33 | O=C(CN1CCN(S(=O)(=O)c2ccc(Cl)cc2)CC1)N1CCCC1 | -14.7 | – | 3.26 µM [falling, single point]
34 | O=C(CCC(=O)NC1CCCCC1)Nc1cccnc1 | 31.2 | – | 29.1 µM [rising, single point]
35 | CN1/C(=C\C(=O)c2cccnc2)Sc2ccccc21 | 6.6 | – | 7.31 µM [rising, single point]
36 | CCCN(C(=O)COc1ccc(Cl)cc1Cl)c1c(N)n(Cc2ccccc2)c(=O)[nH]c1=O | -17.2 | – | 1.12 µM [falling, full curve, poor fit]
37 | Nc1c(C(=O)c2ccccc2)sc2nsc(SCCN3CCOCC3)c12 | 5.12 | – | 20.6 µM [falling, single point]
38 | O=C(NC1CC(=O)N(c2cccc(F)c2)C1)C(=O)c1c[nH]c2ccccc12 (stereo unspecified) | – | – | 4.11 µM [rising, partial curve, poor fit]
39 | COc1cccc(CCNC(=O)C2CCCN(c3ncnc4c3nc3n4CCCCC3)C2)c1OC (stereo unspecified) | 3.05 | – | 6.51 µM [rising, single point]

Reformatted with each value named: part of the list above.
Cc1cc(C)nc(NCCC(=O)O)n1
  cell number change [%]: -26.7; AC50 [1]: 0.82 µM [falling, full curve, poor fit]
COc1ccc(CCNS(=O)(=O)c2ccc3c(c2)NC(=O)CO3)cc1OC
  cell number change [%]: -10.5
CC(C)(C)c1ccc(C(=O)NCCCNC(=O)c2ccccn2)cc1
  cell number change [%]: 8.57; AC50 [1]: 0.0651 µM [rising, full curve, poor fit]
